Reference: paper PMC12713088

By UniProt entry, the sequences of proteins in these tests, tags left out. Where a name states a change or a piece, a line headed by the entry shows the natural chain unless it says otherwise.
UniProt Q8GUI6: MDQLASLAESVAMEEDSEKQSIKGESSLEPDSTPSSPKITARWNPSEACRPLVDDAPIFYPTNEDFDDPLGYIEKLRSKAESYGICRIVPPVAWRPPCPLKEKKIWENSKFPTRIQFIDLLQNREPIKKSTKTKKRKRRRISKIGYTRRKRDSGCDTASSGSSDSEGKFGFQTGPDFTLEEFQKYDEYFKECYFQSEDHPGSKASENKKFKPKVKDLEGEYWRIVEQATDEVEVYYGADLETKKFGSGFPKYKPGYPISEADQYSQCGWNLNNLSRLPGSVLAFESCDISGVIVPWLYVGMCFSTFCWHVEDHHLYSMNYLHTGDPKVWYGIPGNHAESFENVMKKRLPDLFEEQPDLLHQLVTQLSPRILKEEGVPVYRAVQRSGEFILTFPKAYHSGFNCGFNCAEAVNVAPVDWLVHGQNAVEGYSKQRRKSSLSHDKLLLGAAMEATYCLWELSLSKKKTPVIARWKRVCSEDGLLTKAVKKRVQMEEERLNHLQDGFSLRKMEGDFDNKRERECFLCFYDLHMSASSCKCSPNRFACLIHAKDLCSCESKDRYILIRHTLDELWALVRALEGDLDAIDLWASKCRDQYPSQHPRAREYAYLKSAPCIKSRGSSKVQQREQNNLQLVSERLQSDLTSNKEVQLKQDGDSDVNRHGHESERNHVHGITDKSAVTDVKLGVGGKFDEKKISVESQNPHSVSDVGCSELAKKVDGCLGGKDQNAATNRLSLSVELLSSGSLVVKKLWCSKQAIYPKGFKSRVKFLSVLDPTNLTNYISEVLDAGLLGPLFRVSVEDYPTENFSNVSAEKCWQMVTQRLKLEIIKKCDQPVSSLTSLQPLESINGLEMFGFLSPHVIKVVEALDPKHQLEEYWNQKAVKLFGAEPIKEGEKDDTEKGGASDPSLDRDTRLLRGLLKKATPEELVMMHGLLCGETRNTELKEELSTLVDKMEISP

How the values were obtained:
[1] = biological target: T1, TRB1 (Arabidopsis thaliana) (UniProt Q8VWK4); assay: EMSA; settings: EMSA: 10 mM Tris-HCl pH 7.5, 50 mM NaCl, 1 mM EDTA, 5% glycerol, 1 mM DTT, 25 C, 30 min, 20 ng DNA + 1 ug protein; recombinant protein; residues 1-300; protein details: His; label: Cy5 at 5' of strand 1
T1 sequence (looked up): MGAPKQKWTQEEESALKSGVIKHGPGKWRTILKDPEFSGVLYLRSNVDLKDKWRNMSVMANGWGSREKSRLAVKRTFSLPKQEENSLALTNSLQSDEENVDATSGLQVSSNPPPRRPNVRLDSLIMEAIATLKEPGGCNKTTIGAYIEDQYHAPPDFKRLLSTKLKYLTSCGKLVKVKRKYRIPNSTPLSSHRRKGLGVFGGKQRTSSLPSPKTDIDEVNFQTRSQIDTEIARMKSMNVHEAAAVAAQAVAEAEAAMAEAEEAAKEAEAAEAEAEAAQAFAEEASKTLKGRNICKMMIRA

[2] = biological target: T2, HTH1 (Arabidopsis thaliana) (UniProt Q9SHL4); assay: EMSA; settings: EMSA: 10 mM Tris-HCl pH 7.5, 50 mM NaCl, 1 mM EDTA, 5% glycerol, 1 mM DTT, 25 C, 30 min, 20 ng DNA + 1 ug protein; recombinant protein; residues 1-275; label: Cy5 at 5' of strand 1
T2 sequence (looked up): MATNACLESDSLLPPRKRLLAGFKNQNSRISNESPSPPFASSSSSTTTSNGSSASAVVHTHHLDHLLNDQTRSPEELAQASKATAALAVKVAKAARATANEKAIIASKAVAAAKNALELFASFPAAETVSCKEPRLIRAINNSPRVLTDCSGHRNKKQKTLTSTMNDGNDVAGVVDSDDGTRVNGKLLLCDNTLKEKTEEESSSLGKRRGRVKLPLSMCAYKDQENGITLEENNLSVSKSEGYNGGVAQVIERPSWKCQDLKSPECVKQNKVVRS

[3] = biological target: T3, HTH2/TRBIP1 (Arabidopsis thaliana) (UniProt O81784); assay: EMSA; settings: EMSA: 10 mM Tris-HCl pH 7.5, 50 mM NaCl, 1 mM EDTA, 5% glycerol, 1 mM DTT, 25 C, 30 min, 20 ng DNA + 1 ug protein; recombinant protein; residues 1-333; label: Cy5 at 5' of strand 1
T3 sequence (looked up): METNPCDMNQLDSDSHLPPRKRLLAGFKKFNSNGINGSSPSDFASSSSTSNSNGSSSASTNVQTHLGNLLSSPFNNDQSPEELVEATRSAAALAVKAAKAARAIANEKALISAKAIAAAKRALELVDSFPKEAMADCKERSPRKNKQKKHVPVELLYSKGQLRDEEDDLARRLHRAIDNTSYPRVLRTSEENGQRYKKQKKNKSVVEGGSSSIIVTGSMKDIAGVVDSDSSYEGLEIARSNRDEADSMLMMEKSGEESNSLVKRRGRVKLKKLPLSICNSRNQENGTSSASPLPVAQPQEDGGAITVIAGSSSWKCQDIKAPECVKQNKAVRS

[4] = biological target: JMJ14 (Arabidopsis thaliana) (UniProt Q8GUI6); assay: EMSA; settings: EMSA: 10 mM Tris-HCl pH 7.5, 50 mM NaCl, 1 mM EDTA, 5% glycerol, 1 mM DTT, 25 C, 30 min, 20 ng DNA + 1 ug protein; recombinant protein; residues 1-954; protein details: FLAG; label: Cy5 at 5' of strand 1
[5] = biological target: T4, ZDP2 (Arabidopsis thaliana) (UniProt Q9LRN9); assay: EMSA; settings: EMSA: 10 mM Tris-HCl pH 7.5, 50 mM NaCl, 1 mM EDTA, 5% glycerol, 1 mM DTT, 25 C, 30 min, 20 ng DNA + 1 ug protein; recombinant protein; residues 1-198; label: Cy5 at 5' of strand 1
T4 sequence (looked up): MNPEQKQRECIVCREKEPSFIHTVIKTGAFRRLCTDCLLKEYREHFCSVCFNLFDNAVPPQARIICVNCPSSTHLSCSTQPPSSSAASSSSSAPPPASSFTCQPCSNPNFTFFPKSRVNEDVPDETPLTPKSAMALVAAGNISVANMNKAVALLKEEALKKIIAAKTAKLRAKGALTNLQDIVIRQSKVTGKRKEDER

[6] = biological target: T5, ICU11 (Arabidopsis thaliana) (UniProt Q3ED68); assay: EMSA; settings: EMSA: 10 mM Tris-HCl pH 7.5, 50 mM NaCl, 1 mM EDTA, 5% glycerol, 1 mM DTT, 25 C, 30 min, 20 ng DNA + 1 ug protein; recombinant protein; residues 1-397; label: Cy5 at 5' of strand 1
T5 sequence (looked up): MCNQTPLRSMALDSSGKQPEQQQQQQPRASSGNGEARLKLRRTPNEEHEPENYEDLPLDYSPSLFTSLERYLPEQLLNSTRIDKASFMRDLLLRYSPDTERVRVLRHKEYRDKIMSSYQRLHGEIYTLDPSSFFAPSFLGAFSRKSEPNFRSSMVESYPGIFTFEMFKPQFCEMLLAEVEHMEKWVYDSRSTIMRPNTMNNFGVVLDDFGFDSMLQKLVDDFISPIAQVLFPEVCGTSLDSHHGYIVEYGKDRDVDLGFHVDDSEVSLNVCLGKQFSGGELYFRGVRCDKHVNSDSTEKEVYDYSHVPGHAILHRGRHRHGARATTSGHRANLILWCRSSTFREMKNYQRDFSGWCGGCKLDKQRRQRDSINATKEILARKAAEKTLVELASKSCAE

[7] = biological target: T6, HTH3 (Arabidopsis thaliana) (UniProt Q9FKY2); assay: EMSA; settings: EMSA: 10 mM Tris-HCl pH 7.5, 50 mM NaCl, 1 mM EDTA, 5% glycerol, 1 mM DTT, 25 C, 30 min, 20 ng DNA + 1 ug protein; recombinant protein; residues 1-215; label: Cy5 at 5' of strand 1
T6 sequence (looked up): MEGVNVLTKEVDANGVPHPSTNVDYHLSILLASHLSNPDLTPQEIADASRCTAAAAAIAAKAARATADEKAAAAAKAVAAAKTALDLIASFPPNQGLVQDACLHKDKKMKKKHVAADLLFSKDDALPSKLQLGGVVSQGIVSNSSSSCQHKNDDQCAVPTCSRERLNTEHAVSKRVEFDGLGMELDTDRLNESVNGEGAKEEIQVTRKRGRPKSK

[8] = biological target: T1, TRB1 (Arabidopsis thaliana); assay: ITC; settings: Kd only in figure; ITC: 20 mM Tris-HCl pH 7.5, 150 mM NaCl, 25 C, 5 uM protein, 100 uM DNA; recombinant protein; residues 1-300; protein details: His
[9] = system: TRB1-2 (Arabidopsis thaliana); assay: EMSA; settings: EMSA: 10 mM Tris-HCl pH 7.5, 50 mM NaCl, 1 mM EDTA, 5% glycerol, 1 mM DTT, 25 C, 30 min, 20 ng DNA + 1 ug protein; recombinant protein; protein details: His; label: Cy5 at 5' of strand 1
[10] = biological target: T7, TRB1-MybΔ del1-60 (Arabidopsis thaliana) (UniProt Q8VWK4); assay: EMSA; settings: EMSA: 10 mM Tris-HCl pH 7.5, 50 mM NaCl, 1 mM EDTA, 5% glycerol, 1 mM DTT, 25 C, 30 min, 20 ng DNA + 1 ug protein; recombinant protein; residues 61-300; label: Cy5 at 5' of strand 1
T7 sequence (looked up): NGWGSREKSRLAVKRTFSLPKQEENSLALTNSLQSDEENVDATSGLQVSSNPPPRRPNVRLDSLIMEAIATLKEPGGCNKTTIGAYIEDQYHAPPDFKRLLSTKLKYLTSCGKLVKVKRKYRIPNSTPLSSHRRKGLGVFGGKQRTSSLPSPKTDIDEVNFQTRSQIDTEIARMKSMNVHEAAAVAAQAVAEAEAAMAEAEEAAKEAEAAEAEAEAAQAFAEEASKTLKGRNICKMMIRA

[11] = biological target: TRB1-3 (Arabidopsis thaliana) (UniProt Q8VWK4); assay: EMSA; settings: EMSA: 10 mM Tris-HCl pH 7.5, 50 mM NaCl, 1 mM EDTA, 5% glycerol, 1 mM DTT, 25 C, 30 min, 20 ng DNA + 1 ug protein; recombinant protein; protein details: His; label: Cy5 at 5' of strand 1
[12] = biological target: TRB1-5 (Arabidopsis thaliana) (UniProt Q8VWK4); assay: EMSA; settings: EMSA: 10 mM Tris-HCl pH 7.5, 50 mM NaCl, 1 mM EDTA, 5% glycerol, 1 mM DTT, 25 C, 30 min, 20 ng DNA + 1 ug protein; recombinant protein; protein details: His; label: Cy5 at 5' of strand 1
[13] = system: TRB1-4 (Arabidopsis thaliana); assay: EMSA; settings: EMSA: 10 mM Tris-HCl pH 7.5, 50 mM NaCl, 1 mM EDTA, 5% glycerol, 1 mM DTT, 25 C, 30 min, 20 ng DNA + 1 ug protein; recombinant protein; protein details: His; label: Cy5 at 5' of strand 1
[14] = biological target: TRB1-6 (Arabidopsis thaliana) (UniProt Q8VWK4); assay: EMSA; settings: EMSA: 10 mM Tris-HCl pH 7.5, 50 mM NaCl, 1 mM EDTA, 5% glycerol, 1 mM DTT, 25 C, 30 min, 20 ng DNA + 1 ug protein; recombinant protein; protein details: His; label: Cy5 at 5' of strand 1
[15] = biological target: T8, NAC050-N (Arabidopsis thaliana) (UniProt Q9SQX9); assay: EMSA; settings: EMSA: 10 mM Tris-HCl pH 7.5, 50 mM NaCl, 1 mM EDTA, 5% glycerol, 1 mM DTT, 25 C, 30 min, 20 ng DNA + 1 ug protein; recombinant protein; protein details: MBP; label: Cy5 at 5' of strand 1
T8 sequence (looked up, limits assumed): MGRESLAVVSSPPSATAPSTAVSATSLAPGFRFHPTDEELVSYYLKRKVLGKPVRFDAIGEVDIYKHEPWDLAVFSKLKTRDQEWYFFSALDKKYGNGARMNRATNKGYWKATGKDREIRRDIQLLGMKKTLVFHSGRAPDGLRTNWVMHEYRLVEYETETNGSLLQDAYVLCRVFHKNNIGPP

Sequence | binding result [1] | binding result [2] | binding result [3] | binding result [4] | binding result [5] | binding result [6] | binding result [7] | binding result [8] | binding result [9] | binding result [10] | binding result [11] | binding result [12] | binding result [13] | binding result [14] | binding result [15]
GACGCTTGAGCCTCAAGAAAT (double strand) [Probe 2 (P2)] | no binding | binds | binds | no binding | no binding | no binding | binds | – | – | – | – | – | – | – | –
ATCGAATTTAGGGCAAAATG (double strand) [Probe 1 for ITC] | – | – | – | – | – | – | – | binds | – | – | – | – | – | – | –
ATCGAATTTAGGGCAAAATG (double strand) [Probe 1 (P1)] | – | binds | binds | no binding | no binding | no binding | binds | – | no binding | binds more weakly | no binding | no binding | no binding | no binding | no binding
TCCGATTGTCTTTTCGTTTT (double strand) [Probe 3 (P3)] | no binding | binds | binds | no binding | no binding | no binding | binds | – | – | – | – | – | – | – | no binding

For some assays here: A negative result means that nothing was seen under these conditions. For some assays here: At least one verdict rests on a figure or table, not on a statement of the authors. For some assays here: Where a protein sequence is shown, tags need not be part of it. For some assays here: Weaker means in comparison with the reference protein, sequence or condition of that experiment. For some assays here: For at least one entry, the source does not settle the construct or the ends of the probe.
